{"sequences": {"note": "The chains behind the UniProt entries cited, without tags or fusion partners. Residues count along the entry.", "UniProt P39688, residues 2-537": "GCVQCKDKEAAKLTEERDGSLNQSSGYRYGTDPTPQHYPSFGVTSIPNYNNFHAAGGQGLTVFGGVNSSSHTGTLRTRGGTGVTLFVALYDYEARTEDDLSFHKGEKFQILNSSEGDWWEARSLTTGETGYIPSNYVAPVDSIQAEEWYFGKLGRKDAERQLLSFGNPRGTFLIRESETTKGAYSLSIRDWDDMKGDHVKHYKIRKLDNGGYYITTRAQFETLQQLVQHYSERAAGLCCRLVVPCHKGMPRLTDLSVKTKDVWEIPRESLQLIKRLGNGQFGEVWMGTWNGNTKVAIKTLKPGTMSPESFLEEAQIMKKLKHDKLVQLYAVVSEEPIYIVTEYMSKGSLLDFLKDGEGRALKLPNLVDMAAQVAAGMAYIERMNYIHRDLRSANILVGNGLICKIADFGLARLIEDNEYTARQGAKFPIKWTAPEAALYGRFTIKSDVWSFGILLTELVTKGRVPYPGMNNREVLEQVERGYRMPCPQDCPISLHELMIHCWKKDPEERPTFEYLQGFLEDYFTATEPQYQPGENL"}, "source": "patent US20150258143A1", "target": "T1, ADAP (mouse) (UniProt O35601)", "T1 sequence": "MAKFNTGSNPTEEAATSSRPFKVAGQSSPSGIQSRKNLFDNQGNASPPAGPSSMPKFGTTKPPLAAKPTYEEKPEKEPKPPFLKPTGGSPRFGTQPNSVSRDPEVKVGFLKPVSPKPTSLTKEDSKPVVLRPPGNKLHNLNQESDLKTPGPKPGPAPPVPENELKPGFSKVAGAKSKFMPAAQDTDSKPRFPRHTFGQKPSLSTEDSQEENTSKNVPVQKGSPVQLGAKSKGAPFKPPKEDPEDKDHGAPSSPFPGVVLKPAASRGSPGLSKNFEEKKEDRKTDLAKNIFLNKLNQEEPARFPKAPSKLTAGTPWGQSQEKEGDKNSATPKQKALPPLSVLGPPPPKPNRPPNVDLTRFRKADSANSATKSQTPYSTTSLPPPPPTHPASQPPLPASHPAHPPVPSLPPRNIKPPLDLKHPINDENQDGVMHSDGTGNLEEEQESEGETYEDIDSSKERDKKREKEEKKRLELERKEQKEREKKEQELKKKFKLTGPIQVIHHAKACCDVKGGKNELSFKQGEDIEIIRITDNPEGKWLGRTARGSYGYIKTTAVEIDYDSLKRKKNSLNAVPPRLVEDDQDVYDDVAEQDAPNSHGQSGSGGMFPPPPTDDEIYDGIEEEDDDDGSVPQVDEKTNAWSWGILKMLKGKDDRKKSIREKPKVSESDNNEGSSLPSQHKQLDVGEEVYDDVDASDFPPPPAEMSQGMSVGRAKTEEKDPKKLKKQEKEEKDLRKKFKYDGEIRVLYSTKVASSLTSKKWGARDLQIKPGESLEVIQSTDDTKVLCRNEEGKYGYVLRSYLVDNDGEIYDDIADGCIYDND", "assay": "co-immunoprecipitation from NK cell lysates after CD137-mediated activation (blots of FIG. 13)", "note": "These are yes or no findings as the source states them, for the method shown. Binding seen in cells or lysates may run through a third protein. Some binding calls cover weakened binding; strength is not graded here."}
{"substance": "Fyn (from UniProt P39688 2-537) (enzyme)", "values": [{"measurement": "binding", "value": "binds"}]}
